Test results as given in patent US20190262327A1, “COMBINATION OF A BACE INHIBITOR AND AN ANTIBODY OR ANTIGEN-BINDING FRAGMENT FOR THE TREATMENT OF A DISORDER ASSOCIATED WITH THE ACCUMULATION OF AMYLOID BETA” (ASTRAZENECA AB, priority 2016, published 2019).

Columns and labels:
[1] = target: native Amyloid beta in plaques on Tg2576 mouse brain sections; assay: in vitro immunohistochemistry on Tg2576 mouse brain sections
[2] = target: native Amyloid beta in plaques on Tg2576 mouse brain sections; assay: in vitro immunohistochemistry on brain sections; diffuse and CAA plaques

binding [1]: binds
binding [2]: binds
B1: Abet0380-GL (germlined) IgG1-TM (antibody, V domains shown)
VH: EVQLLESGGGLVQPGGSLRLSCAASMGNFNYQTMWWVRQAPGKGLEWVSVIGKTNENIAYADSVKGRFTISRDNSKNTLYLQMNSLRAEDTAVYYCAREWMDHSRPYYYYGMDVWGQGTLVTVSS
VL: SYELTQPPSVSVSPGQTASITCSGHNLEDKFASWYQQKPGQSPVLVIYRDDKRPSGIPERFSASNSGHTATLTISGTQAMDEADYYCSSQDTVTRVFGGGTKLTVL

No constants are given. Whether binding was seen depends on the method and setting. Binding calls can cover weak binding; strength is not graded here.
